Test results from patent US20080075726A1 (VACCINEX, published 2008).
Where a chain is given by its changes, count along the chain named. Results are given in words; binding and its absence hold for the method and conditions named. Some binding calls cover weakened binding; strength is not graded here.

Protein sequences, listed by entry. Tags and fused reporters are not part of them. Residues count along the entry.
UniProt P05231, residues 30-212: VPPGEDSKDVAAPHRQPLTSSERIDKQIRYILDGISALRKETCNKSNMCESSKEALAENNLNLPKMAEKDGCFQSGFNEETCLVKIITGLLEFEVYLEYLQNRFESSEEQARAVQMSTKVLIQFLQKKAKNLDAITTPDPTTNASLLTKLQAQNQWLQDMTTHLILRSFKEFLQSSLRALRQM

B1: mAb 286 (antibody, V domains shown)
VH: QVTLKESGPALVKPTQTLTLTCTFSGFSLSTSGMCVSWIRQPPGKALEWLTLIYWDDDKRYSPSLETRLTITKDTSKNQVVLTMTNMDPVDTATYYCARSYDDYLYYALDYWGQGTLVT
VL: DIVMTQSPSSLSASVGDRVTITCRASQTISSYLNWYQQKPGKPPKLLIYAASSLESGVPSRFSGSGSGTEFTLTISSLQPEDLATYYCQQANSFPLTFGGGTKLE
B2: mAb 181 (antibody, V domains shown)
VH: B1 VH with S30T, T51A, S62N, E66R, T67S
VL: B1 VL
B3: mAb 242 (antibody, V domains shown)
VH: QVTLKESGPTLVKPTQTLTLTCSFSGFSLSTSGVGVGWVRQPPGKALEWLAFIFWDDDKYYSPSLESRLTITKDTSKNQVVLTMTNMDPVDTATYYCARSYDDYLYYALDYWGQGTLVT
VL: B1 VL
B4: mAb 248 (antibody, V domains shown)
VH: QVTLKESGPTLVKPTQTLTLTCTFSGFSLSTSGVAVGWIRQPPGKALEWLALIFWDDDKHYSPSLKSRLTITKDTSKNQVVLTMTNMDPVDTATYYCARSYDDYLYYALDYWGQGTLVTVSS
VL: B1 VL

How the values were obtained:
[1] = target: T1, recombinant human IL-6 (human, UniProt P05231 30-212, limits assumed); experiment: IC50 ELISA (Table 11)
T1 construct: also called rhIL6; human recombinant IL-6

[2] = target: T1, recombinant human IL-6; experiment: flow cytometry blocking assay, single experiment: 100 ng/ml IL-6 with or without 0.3 µg/ml mAb, U266 cells bearing IL-6 receptor; FL2-H histograms (dark solid: IL-6 alone; light solid: IL-6 + mAb; dashed: mAb alone)
[3] = target: T1, recombinant human IL-6; experiment: flow cytometry blocking assay: biotinylated rhIL-6 (12 ng/ml on the sheet; 12.5 ng/ml in paragraph 183) pre-incubated with the mAb, then U266 cells bearing IL-6 receptor added; cell-bound IL-6 shown with streptavidin-PE; readout % inhibition
Method: FcR-blocked U266 cells (about 250,000 cells) were then added and co-incubated for another 30 min on ice. […] After washing, the cells were analyzed by flow cytometry.

[4] = target: T1, recombinant human IL-6; experiment: flow cytometry blocking assay (mean N=3): IL-6 at 500 ng/ml with mAb at 5000 to 39.1 ng/ml, U266 cells bearing IL-6 receptor; cell-bound IL-6 detected with B-F6; readout inhibition percent of IL-6 binding

Binder	binding [1]	binding [2]	binding [3]	binding [4]
B1	binds	–	–	–
B2	binds	–	–	–
B3	binds	binds	binds	binds
B4	binds	–	–	–
